According to paper PMC5572924:
These are yes or no findings as the source states them, for the method shown. Sequences can lack the tags named with a protein.

Biological target: mature ComGC of Streptococcus pneumoniae fused to the T25 or T18 fragment of Bordetella pertussis adenylate cyclase (CyaA) (S. pneumoniae)
Test: two-hybrid; bacterial adenylate cyclase two-hybrid (BACTH) in E. coli BTH101; T25 (pKT25) and T18 (pUT18C) fusions; beta-galactosidase activity in liquid culture in Miller units; cultures grown O/N at 30 °C

B1: mature PulG of Klebsiella oxytoca fused to the T25 or T18 fragment of Bordetella pertussis adenylate cyclase (CyaA) (protein, UniProt P15746 7-140)
chain: FTLLEIMVVIVILGVLASLVVPNLMGNKEKADRQKVVSDLVALEGALDMYKLDNSRYPTTEQGLQALVSAPSAEPHARNYPEGGYIRRLPQDPWGSDYQLLSPGQHGQVDIFSLGPDGVPESNDDIGNWTIGKK
binding: no binding
